Test results: patent US20110059398A1, “PHOTOPOLYMERIZABLE COMPOSITION” (AGFA GRAPHICS NV, priority 2004, published 2011)

Assay: Exposure test of the printing plate precursor: sum of the density of the UGRA step wedges (13-step wedge, violet laser 392-417 nm, 86 μJ/cm^2)

In the case of `CC(C)(c1ccc2oc(=S)[nH]c2c1)c1ccc2oc(=S)[nH]c2c1` [I-1], the “UGRA Sum mean value” (Example 2, Experiment Q, co-initiator 0.0068 g (0.0199 mmol) per 26.21 g composition, mean of two plates) is reported as 4.30 and the “UGRA Sum mean value” (Example 2, Experiment R, co-initiator 0.0139 g (0.0406 mmol) per 26.21 g composition, mean of two plates) is reported as 4.76.

With `Sc1nnc(SCCCCSc2nnc(S)s2)s1` [II-1] the “UGRA Sum mean value” (Example 2, Experiment S, co-initiator 0.0144 g (0.0406 mmol) per 26.21 g composition, mean of two plates) was 5.21.

For `Sc1nc2ccccc2s1` [TH-1, mercaptobenzthiazole], the “UGRA Sum mean value” (Example 1, Experiment A, co-initiator 0.0010 g (0.00598 mmol) per 26.21 g composition, mean of two plates, one fully hardened step=1.00) was 0.06, the “UGRA Sum mean value” (Example 1, Experiment B, co-initiator 0.0020 g (0.0120 mmol) per 26.21 g composition, mean of two plates) was 1.93 and the “UGRA Sum mean value” (Example 1, Experiment C, co-initiator 0.0040 g (0.0239 mmol) per 26.21 g composition, mean of two plates) was 3.05. The “UGRA Sum mean value” (Example 1, Experiment D, co-initiator 0.0068 g (0.0407 mmol) per 26.21 g composition, mean of two plates) was 3.92, the “UGRA Sum mean value” (Example 1, Experiment E, co-initiator 0.0100 g (0.0598 mmol) per 26.21 g composition, mean of two plates) was 4.00 and the “UGRA Sum mean value” (Example 1, Experiment F, co-initiator 0.0150 g (0.0897 mmol) per 26.21 g composition, mean of two plates) was 4.12. The “UGRA Sum mean value” (Example 1, Experiment G, co-initiator 0.0300 g (0.179 mmol) per 26.21 g composition, mean of two plates) was 4.06, the “UGRA Sum mean value” (Example 1, Experiment H, co-initiator 0.0500 g (0.299 mmol) per 26.21 g composition, mean of two plates) was 3.86 and the “UGRA Sum mean value” (Example 1, Experiment I, co-initiator 0.1000 g (0.598 mmol) per 26.21 g composition, mean of two plates) was 3.31. For the same molecule, the “UGRA Sum mean value” (Example 2, Experiment L, co-initiator 0.0068 g (0.0407 mmol) per 26.21 g composition, mean of 6 plates) was 3.86.

For `S=c1[nH]c2ccccc2o1` [TH-2, mercaptobenzoxazole], the “UGRA Sum mean value” (Example 2, Experiment O, co-initiator 0.0061 g (0.0403 mmol) per 26.21 g composition, mean of two plates) was 3.33 and the “UGRA Sum mean value” (Example 2, Experiment P, co-initiator 0.0068 g (0.0450 mmol) per 26.21 g composition, mean of two plates) was 3.89.

For `CC(C)(C)COC(=O)CCS` [TH-3, Neopentylalcohol mono(3-mercaptopropionate)], the “UGRA Sum mean value” (Example 2, Experiment N, co-initiator 0.0796 g (0.452 mmol) per 26.21 g composition, mean of two plates) was “no image”.
